According to US5122594A, “Modified human pancreatic secretory trypsin inhibitor” (Shionogi & Co., Ltd., priority 1988, dated 1992):
At least one peptide structure holds a part that was inferred or is arguable (an end, a ring closure or a residue). Positions of bridges follow the written chain, without caps; N, C: chain ends. No end group written: not given here.

Test system: human trypsin
Experiment: Transience of trypsin inhibition / stability under trypsin treatment
Assay type: biochemical
Conditions: for temporary inhibitory action (transience of trypsin inhibition) compared with natural human PSTI: 1 nmol human trypsin + 2 nmol PSTI; for temporary trypsin inhibition compared with natural human PSTI: summary statement, Example 2, FIGS. 3 and 4

Row | Sequence | time after initiation of the reaction at which trypsin-inhibiting activity was maintained (pH 7.0, 37° C.) [h] | temporary inhibitory action (transience of trypsin inhibition) compared with natural human PSTI (pH 7.0, 37° C., FIG. 3) | temporary inhibitory action (transience of trypsin inhibition) compared with natural human PSTI (pH 8.0, 37° C., FIG. 4) | temporary trypsin inhibition compared with natural human PSTI
1 | DSLGREAKCYNELNGCTKIYDPVCGTDGNTYPNECVLCFENQKRQTSILIQKSGPC (disulfide 9-38, 16-35, 24-56) [Gln(42)-PSTI] | ≥ 24 | markedly diminished | markedly diminished | diminished
2 | DSLGREAKCYNELNGCTKIYDPVCGTDGNTYPNECVLCFENRKSQTSILIQKSGPC (disulfide 9-38, 16-35, 24-56) [Ser(44)-PSTI] |  | markedly diminished | markedly diminished | diminished
3 | DSLGREAKCYNELNGCTKIYDPVCGTDGNTYPNECVLCFENRTRQTSILIQKSGPC (disulfide 9-38, 16-35, 24-56) [Thr(43)-PSTI] |  | almost the same inhibitory transience as natural human PSTI | even less persistence of trysin-inhibiting effect than the natural form | 
